# Legend:
# [1] = tested on: retinal isomerase activity (recovery of 11-cis-retinal); test: Comparative in vivo murine isomerase assay, dose response; parameters: species or system BALB/c mice; conditions: 2 hours, peak area units of 11-cis-retinal oxime
# Protocol: (§1) All test compounds were stored at room temperature, dessicated.
# On the day prior to dose administration compound A and compound D were weighed into new empty glass vials. The compounds were dissolved in di-water at the concentration of 0.833 mg/mL compound A and 0.892 mg/mL compound D, serially diluted into various concentrations, and stored overnight at 4° C.
# 56 Male BALB/c mice (Charles River Laboratories) were used for this study. The mice were approximately 8 weeks at the initiation of dosing with an average body weight of 24 grams.
# The day prior to dose administration 56 BALB/c mice were placed into a dark room and dark adapted for a minimum of 12 hours prior to dose administration. The mice were maintained in the dark for the duration of the study.
# (§2) Each animal was removed from its cage and dosed accordingly to the study design in Table 4 (see below). Each animal was administered 0.1 mL of the appropriate compound or vehicle via oral gavage using a 1 mL syringe fitted with a 23 gauge oral gavage needle. Two hours following dose administration, animals were removed from the dark and exposed to 5000 Lux white light for 10 minutes to photobleach their eyes. Following the completion of the photobleach the animals were returned to the dark for 2 hours to allow for the regeneration of 11-cis-retinal in the eyes. Two hours after photobleaching each animal was euthanized with carbon dioxide followed by cervical dislocation, in the dark under red light. The light control group was euthanized immediately following photobleaching. Immediately following the cervical dislocation both eyes of each animal were removed and transferred into separate tubes, flash frozen in liquid nitrogen and stored in the dark at −80° C. until processing and analysis.
# (§3) All sample processing procedures were performed in the dark under red light.
# Extracted samples were analyzed using an Agilent 1100 HPLC system according to the procedure outlined in Table 6 (see below)
# (§4) HPLC analysis of the eyes measures the peak area units of the 110cis-Ral-Oxime_syn. Signal.
# (§5) Data analysis % inhibition (drug vs. recovery control). % control (drug vs. light control), and One-way ANOVA (followed by Tukey's Multiple Comparison) were performed using peak area units and performed by Prism software. Data are represented as mean and standard deviation.
# [2] = tested on: regeneration of 11-cis-retinal; test: Single dose time course in the in vivo isomerase assay at 0.3 mg/kg; parameters: species or system BALB/c mice; conditions: peak area units
# Protocol: as §1
# The compounds were dissolved in di-water at the concentration of 0.068 mg/mL and stored overnight at 4° C.
# 52 Male BALB/c mice (Charles River Laboratories) were used for this study. The mice were approximately 8 weeks at the initiation of dosing with an average body weight of 23 grams.
# The day prior to dose administration 52 BALB/c mice were placed into a dark room and dark adapted for a minimum of 12 hours prior to dose administration. The mice were maintained in the dark for the duration of the study.
# as §2, with “Table 10” for “Table 4”, “appropriate test article” for “appropriate compound”, “vehicle orally” for “vehicle via oral gavage”, “needle. At 2, 4, 6, 8, 16 or 24” for “needle. Two”
# as §3
# Extracted samples were analyzed using an Agilent 1100 HPLC system according to the procedure outlined in Table 12 (see below)
# as §4, §5
smiles,measurement,setting,value
NCC[C@@H](O)c1cccc(OCC2CCOCC2)c1 [Example 1],"Mean Diff., Tukey's Multiple Comparison Test, Vehicle vs. compound",[1]; 0.03 mg/kg,−7.4
same,"Mean Diff., Tukey's Multiple Comparison Test, Vehicle vs. compound",[1]; 0.1 mg/kg,−1.7
same,"Mean Diff., Tukey's Multiple Comparison Test, Vehicle vs. compound",[1]; 0.3 mg/kg,15.6
same,"Mean Diff., Tukey's Multiple Comparison Test, Vehicle vs. compound",[1]; 0.5 mg/kg,16.7
same,"Mean Diff., Tukey's Multiple Comparison Test, Vehicle vs. compound",[1]; 1 mg/kg,16.9
same,"Mean Diff., Tukey's Multiple Comparison Test, Vehicle vs. compound",[1]; 3 mg/kg,17.7
same,"Mean Diff., Tukey's Multiple Comparison Test, Vehicle vs. time point",[2]; 2 Hr,46.9
same,"Mean Diff., Tukey's Multiple Comparison Test, Vehicle vs. time point",[2]; 4 Hr,42.3
same,"Mean Diff., Tukey's Multiple Comparison Test, Vehicle vs. time point",[2]; 6 Hr,26.9
same,"Mean Diff., Tukey's Multiple Comparison Test, Vehicle vs. time point",[2]; 8 Hr,9.7
same,"Mean Diff., Tukey's Multiple Comparison Test, Vehicle vs. time point",[2]; 16 Hr,0.73
same,"Mean Diff., Tukey's Multiple Comparison Test, Vehicle vs. time point",[2]; 24 Hr,2.0
"NCCC(O)c1cccc(OCC2CCCCO2)c1 (stereo not drawn) [compound D, reference compound]","Mean Diff., Tukey's Multiple Comparison Test, Vehicle vs. compound",[1]; 0.03 mg/kg,−0.9
same,"Mean Diff., Tukey's Multiple Comparison Test, Vehicle vs. compound",[1]; 0.1 mg/kg,−4.0
same,"Mean Diff., Tukey's Multiple Comparison Test, Vehicle vs. compound",[1]; 0.3 mg/kg,−0.4
same,"Mean Diff., Tukey's Multiple Comparison Test, Vehicle vs. compound",[1]; 0.5 mg/kg,7.0
same,"Mean Diff., Tukey's Multiple Comparison Test, Vehicle vs. compound",[1]; 1 mg/kg,11.8
same,"Mean Diff., Tukey's Multiple Comparison Test, Vehicle vs. compound",[1]; 3 mg/kg,16.9
same,"Mean Diff., Tukey's Multiple Comparison Test, Vehicle vs. time point",[2]; 2 Hr,6.3
same,"Mean Diff., Tukey's Multiple Comparison Test, Vehicle vs. time point",[2]; 4 Hr,−0.88
same,"Mean Diff., Tukey's Multiple Comparison Test, Vehicle vs. time point",[2]; 6 Hr,5.8
same,"Mean Diff., Tukey's Multiple Comparison Test, Vehicle vs. time point",[2]; 8 Hr,2.6
same,"Mean Diff., Tukey's Multiple Comparison Test, Vehicle vs. time point",[2]; 16 Hr,−2.0
same,"Mean Diff., Tukey's Multiple Comparison Test, Vehicle vs. time point",[2]; 24 Hr,5.0

# Source: patent publication US9133154B2, “Substituted 3-phenylpropylamine derivatives for the treatment of ophthalmic diseases and disorders” (Acucela Inc., priority 2013, dated 2015)
